US20160375019A1, “TREATMENT OF CHRONIC GRAFT VERSUS HOST DISEASE WITH SYK INHIBITORS” (Gilead Sciences, Inc., priority 2015, published 2016)
For part of these data: At least one compound was matched to its structure with a doubt left. Some entries share one result that the patent states for a list of compounds.

Experiments:
[1] = test system: basophils (CD63 expression) in human whole blood; assay: 384-well HTBS Whole Blood CD63 Basophil Assay; assay type: cell-based; conditions: human whole blood (25% blood), anti-FceRI mAb activation
Protocol: Syk activity was assessed in relation to reduced activation of basophils as measured by the expression of CD63 in a human whole blood basophil cellular assay (25% blood). Basophil activation was measured in human whole blood using the Flow CAST kit (Buhlmann Laboratories AG, Baselstrasse, Switzerland) following the protocol provided by the manufacturer with minor modifications. Fresh human whole blood in heparin was collected and delivered same day (AllCells, Emeryville, Calif.). Whole blood samples were incubated with either DMSO (1% final) or serial diluted compounds in DMSO for 60 minutes at 37° C. Basophils were activated using the anti-FceRI mAb and stained with anti-CD63-FITC and anti-CCR3-PE for 20 minutes at 37° C. (per well: 50 μL of whole blood was mixed with 113 μL of stimulation buffer, 8.5 μL anti-FceRI mAb, 8.5 μL Ab stain CCR3-PE/CD63-FITC). Cells were centrifuged at 1000×g for 18 minutes and 150 μL/well of supernatant removed. […] Degranulation (basophil activation) was detected by CD63 surface expression on CCR3 positive cells. The percent CD63 positive cells within the gated basophil population were determined and normalized to the DMSO (negative control) and control compound (positive control).

Syk = Syk (Homo sapiens, UniProt P43405); assay: High Throughput Syk Biochemical Assay (KinEASE TR-FRET); conditions: 20 μM ATP, 0.015 nM Syk
[2] = test system: aberrant GVHD B-cell populations; conditions: ex vivo; cited from earlier work

Row | Structure (SMILES) | EC50 [1] [nM] | IC50 (Syk) [nM] | function and frequency of aberrant GVHD B-cell populations [2]
1 | Nc1cncc(-c2cn3ccnc3c(Nc3ccc(N4CCO[C@@H](CO)C4)cc3)n2)n1 [Ex.-3, (R)-(4-(4-((6-(6-aminopyrazin-2-yl)imidazo[1,2-a]pyrazin-8-yl)amino)phenyl)morpholin-2-yl)methanol] | < 200 | < 50 | 
2 | Nc1cncc(-c2cn3ccnc3c(Nc3ccc(N4CCN(CC(CO)CO)CC4)cc3)n2)n1 [Ex.-6, 2-((4-(4-((6-(6-aminopyrazin-2-yl)imidazo[1,2-a]pyrazin-8-yl)amino)phenyl)piperazin-1-yl)methyl)propane-1,3-diol] |  | < 50 | 
3 | C=CC(=O)N1CCC[C@@H](n2nc(-c3ccc(Oc4ccccc4)cc3)c3c(N)ncnc32)C1 [ibrutinib] |  |  | selectively reduce the function and frequency of aberrant GVHD B-cell populations
4 | Cc1c(-c2cncc(N)n2)nc(Nc2ccc(N3CCN(C4COC4)CC3)cc2)c2nccn12 [Ex.-4, 6-(6-aminopyrazin-2-yl)-5-methyl-N-(4-(4-(oxetan-3-yl)piperazin-1-yl)phenyl)imidazo[1,2-a]pyrazin-8-amine] |  | < 50 | 
5 | Nc1cncc(-c2cn3ccnc3c(Nc3ccc(N4CCN(C5COC5)CC4)c(OCCO)c3)n2)n1 [Ex.-5, 2-(5-((6-(6-aminopyrazin-2-yl)imidazo[1,2-a]pyrazin-8-yl)amino)-2-(4-(oxetan-3-yl)piperazin-1-yl)phenoxy)ethanol] |  | < 50 | 
